Data from PMC8184782 (Nature Communications, 2021).
Results are given in words; binding and its absence hold for the method and conditions named. Some entries that bind do so weakly or less than the wild type.

Biological target: MLKL K219R, mouse, expressed from the endogenous Mlkl locus of knock-in mice (mouse (endogenous in MDFs)) (UniProt Q9D2Y4)
Test: native gel or EMSA; Blue native PAGE (4-16% Bis-Tris) of cytoplasmic and membrane fractions (digitonin) of MDFs treated with TSZ for 2.5 h or left untreated; immunoblot for MLKL

B1: MLKL K219R, mouse, expressed from the endogenous Mlkl locus of knock-in mice (protein, UniProt Q9D2Y4-2 1-464)
chain: MDKLGQIIKLGQLIYEQCEKMKYCRKQCQRLGNRVHGLLQPLQRLQAQGKKNLPDDITAALGRFDEVLKEANQQIEKFSKKSHIWKFVSVGNDKILFHEVNEKLRDVWEELLLLLQVYHWNTVSDVSQPASWQQEDRQDAEEDGNENMKVILMQLQISVEEINKTLKQCSLKPTQEIPQDLQIKEIPKEHLGPPWTKLKTSKMSTIYRGEYHRSPVTIRVFNNPQAESVGIVRFTFNDEIKTMKKFDSPNILRIFGICIDQTVKPPEFSIVMEYCELGTLRELLDREKDLTMSVRSLLVLRAARGLYRLHHSETLHRNISSSSFLVAGGYQVKLAGFELSKTQNSISRTAKSTKAERSSSTIYVSPERLKNPFCLYDIKAEIYSFGIVLWEIATGKIPFEGCDSKKIRELVAEDKKQEPVGQDCPELLREIINECRAHEPSQRPSVDGILERLSAVEESTDKKV
modifications: phosphorylated after TSZ
binding: binds weakly
